According to PubChem BioAssay AID504834 (National Center for Advancing Translational Sciences (NCATS), 2011):
Screen size: about 320,000 compounds; about 22,000 (6.9%) were called active. Inconclusive means that the source gave no clear call. Such entries were picked first, then a sample of the others. The call rests on the fitted dose curve; in most records, active means well fitted inhibition curve with a large enough effect; inconclusive means small, poorly fitted or top-dose-only effect, or another doubt; inactive means no such curve, though single readings can be large or run the other way. Where the call is inconclusive, the potency comes from a doubtful curve fit.

assay: Primary qHTS for delayed death inhibitors of the malarial parasite plastid, 96 hour incubation; conditions: P. falciparum luciferase reporter growth; series mostly up to 28.7 µM
In short: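 Compounds incubated with erythrocytes infected by luciferase-expressing P. falciparum (2% hematocrit, 0.05% parasitemia final) for 96 hours, 37 C in 5% CO2. Growth inhibition scored as decreased luciferase luminescence.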
On the % scale 0 is the no-effect control and ±100 the full control effect; potency means the concentration at half of the fitted maximal effect.

Compound | Potency | activity change, negative = inhibition
Cc1ccccc1OCCC(=O)OCC(=O)Nc1c(F)cccc1F | inactive | –
COc1cc(CN2CCCC(C(=O)Nc3cccc(-n4cccn4)c3)C2)ccc1F (stereo not drawn) | inconclusive: 18.5 µM [inhibitor, single point] | –
C/C(CCN1CCc2nc(-c3ccccc3)c(-c3ccccc3)cc2C1)=N\OC[C@@H](C)[C@H](OCc1ccccc1)C(C)C | active: 9.28 µM | –
CC(=O)c1ccc(C(=O)NC2CCCN(Cc3ccccc3F)C2)cc1 (stereo not drawn) | active: 5.86 µM | –
COc1ccc(N2C(=O)CC(N3CCN(c4ccccc4)CC3)C2=O)cc1 (stereo not drawn) | inconclusive: 18.5 µM [inhibitor, single point] | –
Cc1ccc(CC(=O)Nc2ccc(Cl)cn2)cc1 | inactive | –
COc1ccccc1/C=C/C=N/n1c(-c2cc(-c3ccccc3)n[nH]2)n[nH]c1=S | inconclusive: 0.522 µM [inhibitor, full curve, poor fit] | –
CCN(C(=O)CSc1nnc(CNc2cccc(OC)c2)n1C1CCCCC1)C1CCS(=O)(=O)C1 (stereo not drawn) | active: 4.15 µM | –
CCCCN1CCc2c([nH]c3ccc(C)cc23)C1=O | inactive | –
Cc1nn(C)c(C)c1S(=O)(=O)N1CCCC(C(=O)N2CCN(c3ccc(Cl)cc3)CC2)C1 (stereo not drawn) | inconclusive: 2.08 µM [inhibitor, partial curve, poor fit] | –
O=C(COC(=O)c1ccccc1O)Nc1cccc(S(=O)(=O)N2CCCC2)c1 | inconclusive: 4.65 µM [inhibitor, single point] | –
CCC(C)NC(=O)CCn1c(=O)c2cccn2c2ccc(F)cc21 (stereo not drawn) | inactive | –
CC1CC2(NC(=O)NC2=O)C(C)CN1C (stereo not drawn) | inconclusive: 18.5 µM [inhibitor, single point] | –
Cc1cc(C)cc(-n2c(C)cc(/C=N/NC(=O)c3ccncc3)c2C)c1 | inconclusive: 18.5 µM [inhibitor, single point] | –
CCOC(=O)C(NC(=O)c1ccccc1)=C1CCCCC1 | inconclusive: 0.928 µM [inhibitor, partial curve, poor fit] | –
Cc1nc(C(=O)NCCC(C)C)sc1C1(C)CC(c2ccccc2)=NO1 (stereo not drawn) | inconclusive: 18.5 µM [inhibitor, single point] | –
COCO/C=C(\NC(C)=O)c1ccccc1 | inactive | –
O=C1/C(=C\c2ccco2)CCC/C1=C\c1ccco1 | inconclusive: 0.0329 µM [inhibitor, full curve, poor fit] | –
COc1ccc(OC)c(CN2CCCC(C(=O)c3ccccc3SC)C2)c1 (stereo not drawn) | inactive | –
CN(C)C(CNC(=O)C1CC(=O)N(Cc2ccccc2)C1)c1ccccc1 (stereo not drawn) | inactive | –
O=C(O)C(Cc1ccccc1)N1C(=O)C2CCCCC2C1=O (stereo not drawn) | inconclusive: 14.7 µM [inhibitor, partial curve] | –
CCOCCCNC(=O)Cc1ccc(-n2c(CC)nc3cccnc32)cc1 | inconclusive: 8.28 µM [inhibitor, partial curve, poor fit] | –
CCC(=O)c1ccc(OCC(=O)Nc2ccccc2N2CCOCC2)cc1 | inconclusive: 8.28 µM [inhibitor, partial curve] | –
O=C(Nc1cc([N+](=O)[O-])ccc1Cl)C(Sc1ccccc1)c1ccccc1 (stereo not drawn) | inactive | –
CC(C)NC(=O)c1nc2c(nnn2Cc2cccc(Cl)c2)c(=O)[nH]1 | inactive | –

Compound | Potency | activity change, negative = inhibition
CCn1c(/C=C/Nc2ccccc2)[n+](CC)c2ccc(Cl)cc21 | active: 8.28 µM | –
Nc1ccccc1C(=O)OCC(=O)Nc1ccc(Br)cc1F | inactive | –
O=C(O)c1ccc(NC(=O)c2cn(-c3ccccc3)nc2-c2cccc(Cl)c2)cc1 | active: 11.7 µM | –
CCN(CC)S(=O)(=O)c1ccc(N2CCOCC2)c(NC(=O)c2cccc(C#N)c2)c1 | inconclusive: 18.5 µM [inhibitor, single point] | –
O=C(OCC(=O)N1CCOCC1)c1ccc(O)cc1 | inactive | –
CN(Cc1cccnc1)Cc1cn(Cc2ccccc2)nc1-c1ccc2c(c1)OCO2 | inactive | –
COC(=O)c1ccc(SCc2cnc(Cl)s2)cc1 | inactive | –
S=c1[nH]nc(-c2ccncc2)n1/N=C/c1cn(-c2ccccc2)nc1-c1ccccc1 | inconclusive: 4.15 µM [inhibitor, partial curve, poor fit] | –
Cn1c(SCc2c(Cl)cccc2Cl)nnc1-c1ccc2nonc2c1 | inconclusive: 5.86 µM [inhibitor, partial curve] | –
Cc1c(C(=O)NN)sc(=S)n1C | inactive | –
Cc1ccc(C)c(C(=O)CCC(=O)NCc2ccc(Cl)cc2)c1 | inconclusive: 20.8 µM [inhibitor, single point] | –
CN(C)c1c2ccccc2nc2c(F)c(F)c(F)c(F)c12 | inconclusive: 18.5 µM [inhibitor, single point] | –
O=C(Nc1cccc(-c2cc3ccccc3oc2=O)c1)c1ccc(Br)o1 | inconclusive: 16.5 µM [inhibitor, single point] | –
Cc1ccc(OCCn2cc(C(=S)N3CCCC3)c3ccccc32)cc1C | inconclusive: 11.7 µM [inhibitor, single point] | –
Cc1cccc(Nc2cc(=O)[nH]c(=O)[nH]2)c1 | active: 11.7 µM | –
COc1ccc(-c2csc(NC(=S)NC(=O)c3ccccc3)n2)cc1Br | inactive | –
C=CCCC(=O)Nc1nc(C)c(-c2csc(Nc3ccc(Cl)cc3Cl)n2)s1 | active: 8.28 µM | –
CN(c1ccccc1)S(=O)(=O)c1ccc(Cl)c(C(=O)NCC(c2ccco2)N2CCCC2)c1 (stereo not drawn) | inconclusive: 18.5 µM [inhibitor, single point] | –
O=C1c2ccccc2C(=O)C2OC12 (stereo not drawn) | inactive | –
Cc1ccc([N+](=O)[O-])cc1NC(=O)Nc1cccc(F)c1 | inconclusive: 8.28 µM [inhibitor, partial curve, poor fit] | –
CC1=C(C)CC2C(=O)N(c3cccc4ccccc34)C(=O)C2C1 (stereo not drawn) | inconclusive: 18.5 µM [inhibitor, single point] | –
COc1ccc(OC)c(S(=O)(=O)NCc2ccccc2)c1 | inconclusive: 11.7 µM [inhibitor, partial curve, poor fit] | –
Cc1ccn(C(=O)c2cc3ccccc3oc2=O)n1 | inconclusive: 7.38 µM [inhibitor, partial curve, poor fit] | –
COc1ccc(CNC(=O)CN2C(=O)C(c3ccccc3)Oc3cccnc32)cc1 (stereo not drawn) | inconclusive: 10.4 µM [inhibitor, single point] | –
CC(C)c1ccc(OCC(=O)NCc2n[nH]c(=O)c3ccccc23)cc1 | inconclusive: 14.7 µM [inhibitor, single point] | –

Compound | Potency | activity change, negative = inhibition
CCOC(=O)c1c(NC(=O)C(=O)N/N=C/c2ccccc2OC)sc2c1CCCCC2 | inactive | –
Cc1ccc(NC(=O)C2CC(O)CN2C(=O)OCc2ccccc2)cc1C (stereo not drawn) | inconclusive: 0.0041 µM [inhibitor, full curve] | –
Cc1ccc(S(=O)(=O)N2CCN(C(=O)c3ccccc3)C2)cc1[N+](=O)[O-] | – | inactive: -54% [at 1.15 µM]
O=C(Cc1cc(=O)[nH][nH]1)N/N=C/c1c(F)cccc1Cl | inconclusive: 13.1 µM [inhibitor, single point] | –
CCCCCC(=O)N(O)C1CC(=O)N(c2ccccc2)C1=O (stereo not drawn) | inconclusive: 2.94 µM [inhibitor, partial curve, poor fit] | –
CC1CCCN(S(=O)(=O)c2ccc(C(=O)Nc3nnc(C4=COCCO4)o3)cc2)C1 (stereo not drawn) | inconclusive: 18.5 µM [inhibitor, single point] | –
Nc1ncnc(Nc2c(F)cccc2F)n1 | inactive | –
CC1CCN(Cc2c(O)ccc3c2O/C(=C\c2ccco2)C3=O)CC1 | active: 10.4 µM | –
Cc1nc(NC(=O)CN(C)S(=O)(=O)c2ccc(Br)cc2)sc1C | inconclusive: 14.7 µM [inhibitor, single point] | –
COc1ccc(OCCCSc2ncccn2)cc1 | inconclusive: 18.5 µM [inhibitor, single point] | –
O=C1C2CCCN2C(c2ccncc2)N1c1ccc(Cl)c(Cl)c1 (stereo not drawn) | active: 0.828 µM | –
O=C(Nc1ccc([N+](=O)[O-])cc1)Nc1ccon1 | inactive | –
CC(C)(C)[C@H](NC(=O)c1ccc(N)c(Cl)c1)C(=O)N1CCC[C@H]1C(=O)N[C@H](C#N)Cc1nn[nH]n1 | inconclusive: 10.4 µM [activator, single point] | –
Cc1ccc(-c2csc(=S)n2CC(=O)OCC(=O)NCc2ccc(F)cc2)cc1 | inconclusive: 18.5 µM [inhibitor, single point] | –
Cc1cc(C)cc(NC(=S)NC2CC3CCC(C2)N3Cc2ccco2)c1 (stereo not drawn) | active: 2.33 µM | –
COc1ccc(NC(=O)c2cc(-c3ccc(C)cc3O)n[nH]2)c(OC)c1 | inconclusive: 13.1 µM [inhibitor, single point] | –
COc1ccccc1/C=C/C=N\N1CCN(Cc2ccccc2Cl)CC1 | inactive | –
CCC(C)[C@H](NC(=O)N1CCn2c1nc1ccccc12)C(=O)NCCc1ccccc1 (stereo partly drawn) | inconclusive: 18.5 µM [inhibitor, single point] | –
O=C(CN1CCCCC1)Nc1nc(-c2ccc(Cl)cc2)cs1 | inactive | –
O=C(CSc1ccccn1)NCc1ccc2c(c1)OCO2 | inconclusive: 2.62 µM [inhibitor, full curve] | –
COCC(C)n1c(SCC(=O)N2CC(=O)Nc3ccccc32)nc2ccccc2c1=O (stereo not drawn) | inconclusive: 13.1 µM [inhibitor, single point] | –
O=[N+]([O-])c1cccc2ccc(N3CCOCC3)nc12 | inconclusive: 18.5 µM [inhibitor, single point] | –
Cc1cc(C(=O)C[N+]23CCN(CC2)CC3)c(C)n1-c1ccc(Br)cc1 | inconclusive: 18.5 µM [inhibitor, single point] | –

Arranged by molar mass (rising): part of the list above
Compound | Potency | activity change, negative = inhibition
CC1CC2(NC(=O)NC2=O)C(C)CN1C (stereo not drawn) | inconclusive: 18.5 µM [inhibitor, single point] | –
Cc1cccc(Nc2cc(=O)[nH]c(=O)[nH]2)c1 | active: 11.7 µM | –
Nc1ncnc(Nc2c(F)cccc2F)n1 | inactive | –
O=C(Nc1ccc([N+](=O)[O-])cc1)Nc1ccon1 | inactive | –
CN(C)c1c2ccccc2nc2c(F)c(F)c(F)c(F)c12 | inconclusive: 18.5 µM [inhibitor, single point] | –
COC(=O)c1ccc(SCc2cnc(Cl)s2)cc1 | inactive | –
CC1=C(C)CC2C(=O)N(c3cccc4ccccc34)C(=O)C2C1 (stereo not drawn) | inconclusive: 18.5 µM [inhibitor, single point] | –
CCn1c(/C=C/Nc2ccccc2)[n+](CC)c2ccc(Cl)cc21 | active: 8.28 µM | –
CC(C)c1ccc(OCC(=O)NCc2n[nH]c(=O)c3ccccc23)cc1 | inconclusive: 14.7 µM [inhibitor, single point] | –
Nc1ccccc1C(=O)OCC(=O)Nc1ccc(Br)cc1F | inactive | –
Cc1ccc(NC(=O)C2CC(O)CN2C(=O)OCc2ccccc2)cc1C (stereo not drawn) | inconclusive: 0.0041 µM [inhibitor, full curve] | –
Cc1ccc(OCCn2cc(C(=S)N3CCCC3)c3ccccc32)cc1C | inconclusive: 11.7 µM [inhibitor, single point] | –
COc1ccc(OC)c(CN2CCCC(C(=O)c3ccccc3SC)C2)c1 (stereo not drawn) | inactive | –
Cn1c(SCc2c(Cl)cccc2Cl)nnc1-c1ccc2nonc2c1 | inconclusive: 5.86 µM [inhibitor, partial curve] | –
O=C(Nc1cc([N+](=O)[O-])ccc1Cl)C(Sc1ccccc1)c1ccccc1 (stereo not drawn) | inactive | –
COc1ccccc1/C=C/C=N/n1c(-c2cc(-c3ccccc3)n[nH]2)n[nH]c1=S | inconclusive: 0.522 µM [inhibitor, full curve, poor fit] | –
Cc1cc(C(=O)C[N+]23CCN(CC2)CC3)c(C)n1-c1ccc(Br)cc1 | inconclusive: 18.5 µM [inhibitor, single point] | –
O=C(Nc1cccc(-c2cc3ccccc3oc2=O)c1)c1ccc(Br)o1 | inconclusive: 16.5 µM [inhibitor, single point] | –
Cc1ccc(-c2csc(=S)n2CC(=O)OCC(=O)NCc2ccc(F)cc2)cc1 | inconclusive: 18.5 µM [inhibitor, single point] | –
C=CCCC(=O)Nc1nc(C)c(-c2csc(Nc3ccc(Cl)cc3Cl)n2)s1 | active: 8.28 µM | –
CCOC(=O)c1c(NC(=O)C(=O)N/N=C/c2ccccc2OC)sc2c1CCCCC2 | inactive | –
CC(C)(C)[C@H](NC(=O)c1ccc(N)c(Cl)c1)C(=O)N1CCC[C@H]1C(=O)N[C@H](C#N)Cc1nn[nH]n1 | inconclusive: 10.4 µM [activator, single point] | –
